From the supplement of paper PMC10735217
Counter-ions that a name gives are not always drawn. Some of the results follow. Single values are uncertain here, since repeats match poorly.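 In a drug-repurposing library screen, luminescence reads luciferase driven by eight TEAD-binding elements, stably integrated into human kidney-derived cells. Compounds scoring over five robust Z scores above the plate mean are called hits.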

Test system: HEK293A TEAD-LUC reporter
Experiment: TEAD-luciferase reporter activity (YAP activation), robust Z score vs plate; higher = stronger YAP/TEAD activation
Details: 24 h

| Structure (SMILES) | TEAD-luciferase reporter activity (compound concentration: 200 nM) | TEAD-luciferase reporter activity (compound concentration: 2 uM) | TEAD-luciferase reporter activity (compound concentration: 10 uM) |
| --- | --- | --- | --- |
| CC[C@H](C)[C@@H]1C(=O)N[C@H](C2Cc3ccccc3C2)C(=O)N1[C@@H](C(=O)N1CCOCC1)c1ccc(C)nc1C [epelsiban] | inactive: -0.758 | inactive: -1.33 | inactive: 4.14 |
| COc1c2c(nc3ccccc13)CN(CCC1CCN(Cc3ccccc3)CC1)C2=O | inactive: -0.218 | inactive: 0.669 | inactive: 0.941 |
| CC(C)CCCCC(=O)NC(CCN)C(=O)NC(C(=O)NC(CCN)C(=O)NC1CCNC(=O)C(C(C)O)NC(=O)C(CCN)NC(=O)C(CCN)NC(=O)C(CC(C)C)NC(=O)C(CC(C)C)NC(=O)C(CCN)NC1=O)C(C)O (stereo not given) [Polymyxin E2] | inactive: -0.804 | – | inactive: 2.65 |
| CC(C)CCCCC(=O)NC(CCN)C(=O)NC(C(=O)NC(CCN)C(=O)NC1CCNC(=O)C(C(C)O)NC(=O)C(CCN)NC(=O)C(CCN)NC(=O)C(CC(C)C)NC(=O)C(CC(C)C)NC(=O)C(CCN)NC1=O)C(C)O (stereo not given) [colistin methanesulfonate sodium (CMS)] | – | inactive: -0.453 | – |
| CCC(C)N(C)C(=O)c1cc2ccccc2c(-c2ccccc2Cl)n1 (stereo not given) | inactive: 0.114 | inactive: 1.5 | inactive: -2.38 |
| CC1(C)O[C@@H]2C[C@H]3[C@@H]4C[C@H](F)C5=CC(=O)CC[C@]5(C)[C@H]4[C@@H](O)C[C@]3(C)[C@]2(C(=O)CO)O1 [Flurandrenolide] | inactive: 1.38 | inactive: 0.284 | inactive: -0.411 |
| O=C(NCCOC(=O)c1ccccc1Nc1ccnc2cc(Cl)ccc12)c1cccnc1 | inactive: -1.86 | inactive: -0.551 | inactive: -0.0256 |
| CC(C)n1c(=O)nc(-c2ccccc2)c2cc3c(cc21)OCO3 | inactive: 0.841 | inactive: -0.497 | inactive: 0.629 |
| Cc1cc(OCCCS(C)(=O)=O)cc(C)c1-c1cccc(COc2ccc3c(c2)OC[C@H]3CC(=O)O)c1 | inactive: -0.31 | – | inactive: 0.21 |
| Cc1cc(OCCCS(C)(=O)=O)cc(C)c1-c1cccc(COc2ccc3c(c2)OC[C@H]3CC(=O)O)c1 [fasiglifam] | – | inactive: -0.159 | – |
| CC(C)=CCOc1cc(NC(=O)c2ccccc2)ccc1Cl | inactive: -0.0679 | inactive: 0.015 | inactive: 0.239 |
| COc1cc2c(cc1OC)C(C)N(S(=O)(=O)c1ccc(C)cc1)CC2 (stereo not given) | inactive: -1.75 | inactive: -0.641 | inactive: 2.73 |
| COc1cncnc1N1CCN(CCCc2c[nH]c3ccc(F)cc23)CC1 | inactive: 3.68 | inactive: 0.201 | inactive: -0.494 |
| C#CCC/C(O)=C(\C#N)C(=O)Nc1ccc(C(F)(F)F)cc1 | inactive: -0.111 | inactive: 0.964 | inactive: -0.184 |
| Cc1nnc(C(C)C)n1C1C[C@H]2CC[C@@H](C1)N2CC[C@H](NC(=O)C1CCC(F)(F)CC1)c1ccccc1 (stereo not given in full) [maraviroc] | inactive: -0.388 | inactive: -1.22 | inactive: 0.674 |
| Cc1cc(Nc2nc(CC3(C(=O)O)CCN(C(=O)c4cccc(Cl)c4Cl)CC3)ccc2F)n[nH]1 | inactive: 0.872 | inactive: -1.63 | inactive: 1.14 |
| CCC(=O)N1Cc2ccccc2CC2(CCCCN2CC2CCOCC2)C1 (stereo not given) | inactive: -2.91 | – | inactive: 4.54 |
| COc1cc2c(Oc3ccc4[nH]c(C)cc4c3F)ncnc2cc1OCCCN1CCCC1 [cediranib] | inactive: -0.982 | inactive: -3.23 | inactive: -1.92 |
| CS(=O)(=O)NNC(=O)c1ccc[n+](CC(=O)c2cccs2)c1 | inactive: -0.956 | inactive: -0.351 | inactive: 1.21 |
| CC(=O)OCCCCc1cc2cccnc2n(-c2ccccc2)c1=O | inactive: -1.63 | inactive: -0.354 | inactive: 0.455 |
| O=P(O)(O)OCC(O)CO (stereo not given) | inactive: -1.87 | inactive: -1.61 | inactive: -0.921 |
| C=C(CC)CN1CCCC12Cc1ccccc1CNC2=O (stereo not given) | inactive: -0.8 | – | – |
| CCN(CC)C(=O)N1CCN(C)CC1 [Diethylcarbamazine] | – | inactive: -0.388 | – |
| CCN(CC)C(=O)N1CCN(C)CC1 | inactive: 0.977 | – | inactive: -1.62 |
| CCCCc1nc(CCc2ccccc2)[nH]c(=O)c1Cc1ccc(-c2ccccc2-c2nnn[nH]2)cc1 | inactive: -0.554 | inactive: -1.02 | inactive: -0.661 |
| Fc1ccc(NC(=S)Nc2cc(Cl)cc(Cl)c2)cc1 | inactive: 0.458 | inactive: -0.451 | inactive: -0.117 |
| CN1[C@@H](CC(=O)c2ccccc2)CCC[C@H]1C[C@H](O)c1ccccc1 [lobeline] | – | inactive: -0.63 | – |
| CN1[C@@H](CC(=O)c2ccccc2)CCC[C@H]1C[C@H](O)c1ccccc1 | inactive: -1.09 | – | inactive: 1.61 |

| Structure (SMILES) | TEAD-luciferase reporter activity (compound concentration: 200 nM) | TEAD-luciferase reporter activity (compound concentration: 2 uM) | TEAD-luciferase reporter activity (compound concentration: 10 uM) |
| --- | --- | --- | --- |
| CC(C)(CC1Cc2ccccc2C1)NC[C@@H](O)COc1ccc(CCC(=O)O)cc1C#N | inactive: 2.16 | inactive: -1.23 | inactive: 1.48 |
| CCCCCCCCNC1=[O]->[V]2(=[O])(<-[O]=C(NCCCCCCCC)C(N)C[S]2)[S]CC1N (stereo not given) | inactive: -0.317 | inactive: 0.0814 | inactive: 1.2 |
| CS(=O)(=O)N(c1cc(F)cc(F)c1)C1CN(C(c2ccc(Cl)cc2)c2ccc(Cl)cc2)C1 [Drinabant] | inactive: -1.06 | inactive: 0.182 | inactive: 0.332 |
| Nc1nc(N)c2cc(S(=O)(=O)c3ccc4ccccc4c3)ccc2n1 | active: 9.96 | inactive: -1.17 | inactive: -1.27 |
| O=C(N/N=C/c1ccccc1O)c1ccncc1 | inactive: -1.56 | inactive: 1.74 | inactive: -1.55 |
| COc1cccc2c1N(C(=O)c1ccc(OC(C)C)nc1)CCC2 | inactive: 2.82 | inactive: -1.13 | inactive: -0.94 |
| COc1cc2nc(-c3ccc(N4CCN(C)CC4)cc3)nc(NCCN3CCOCC3)c2cc1OC | inactive: -0.864 | inactive: 4.11 | active: 7.89 |
| C=C1/C(=C\C=C2/CCC[C@]3(C)[C@@H]([C@H](C)OCCC(C)(C)O)CC[C@@H]23)C[C@@H](O)C[C@@H]1O [maxacalcitol] | inactive: 1.23 | inactive: -2.43 | inactive: -0.838 |
| COC(=O)[C@H]1[C@H]2C[C@@H]3c4[nH]c5cc(OC)ccc5c4CCN3C[C@H]2C[C@H](OC)[C@@H]1OC [Metoserpate Hydrochloride] | inactive: -0.342 | inactive: 0.668 | inactive: -1.49 |
| O=C(c1ccccc1)N1CCC(n2c(=O)[nH]c3ccccc32)CC1 | inactive: -1.89 | – | inactive: 0.89 |
| CN(C/C=C/C#CC(C)(C)C)Cc1cccc2c(F)cc(F)cc12 | inactive: 0.599 | inactive: -0.207 | inactive: -0.267 |
| O=Cc1c(O)cccc1OCCCCC(=O)O [velaresol] | inactive: -0.371 | inactive: -0.341 | inactive: 0.0635 |
| CC(=O)N[C@@H]1[C@@H](OC(C)C(=O)NC(C)C(=O)NC(CCC(N)=O)C(=O)O)[C@H](O)[C@@H](CO)O[C@@H]1O (stereo not given in full) | inactive: -0.415 | inactive: -0.676 | inactive: 0.753 |
| CC(CCc1ccc(O)cc1)NCCc1ccc(O)c(O)c1 (stereo not given) [dobutamine] | inactive: -0.797 | inactive: -1.03 | inactive: 3.4 |
| Cc1cc(C)nc(OC(C(=O)O)C(OCCc2ccccc2)(c2ccccc2)c2ccccc2)n1 (stereo not given) | inactive: -1.97 | inactive: -1.51 | inactive: 2.41 |
| COc1ccc(/C(C)=N/OC(N)=O)cc1OC1CCCC1 | inactive: -0.844 | inactive: -0.401 | inactive: 0.0658 |
| COc1nccc(-c2c(-c3ccc(F)cc3)ncn2C2CCC(O)CC2)n1 (stereo not given) | inactive: -0.602 | inactive: -2.15 | inactive: 0.656 |
| CN(C)C(=O)n1cc(C(=O)c2ccn3c2CS[C@@H]3c2cccnc2)c2ccc(-c3ccc(F)cc3)cc21 | inactive: -0.34 | inactive: -0.778 | inactive: 0.508 |
| COc1cc(NC(=O)C2CC2)c(Cl)cc1C(=O)N[C@@H]1CCN(Cc2ccccc2)C1 | inactive: -1.17 | inactive: -1.35 | inactive: 0.633 |
| O=C([O-])c1ccccc1-c1c2cc(I)c(=O)c(I)c-2oc2c(I)c([O-])c(I)cc12 | inactive: -0.455 | inactive: -0.18 | inactive: 2.22 |
| COc1ccc(CC(=O)N2Cc3ccccc3CC23CCCN(C(=O)CCCN)C3)cc1 (stereo not given) | inactive: 0.805 | – | inactive: 2.57 |
| O=C1N(Cc2ccc(C(F)(F)F)o2)c2ccccc2C12COc1cc3c(cc12)OCO3 (stereo not given) [Funapide] | inactive: -1.98 | inactive: -0.904 | inactive: 0.0961 |
| CC1(C)S[C@@H]2[C@H](NC(=O)[C@H](N)c3ccccc3)C(=O)N2[C@H]1C(=O)OC1OC(=O)c2ccccc21 (stereo not given in full) | inactive: 0.753 | inactive: -0.477 | inactive: 1.79 |
| CC(C)(C)NCC(O)COc1nsnc1N1CCOCC1 (stereo not given) [timolol, transdermal] | – | inactive: -0.629 | – |
| CC(C)(C)NCC(O)COc1nsnc1N1CCOCC1 (stereo not drawn) [S(-)-Timolol maleate] | inactive: -2.6 | – | inactive: -2.48 |
| CCOCCn1c(CN2CCN(CCCCn3cccn3)CC2)nc2ccccc21 | inactive: -0.692 | inactive: -0.954 | inactive: -1.46 |
| C[C@H]1[C@H](C)CC[C@]2(C(=O)O[C@@H]3O[C@H](CO[C@@H]4O[C@H](CO)[C@@H](O[C@@H]5O[C@@H](C)[C@H](O)[C@@H](O)[C@H]5O)[C@H](O)[C@H]4O)[C@@H](O)[C@H](O)[C@H]3O)CC[C@]3(C)C(=CC[C@@H]4[C@@]5(C)C[C@@H](O)[C@H](O)[C@@](C)(CO)[C@@H]5[C@H](O)C[C@]43C)[C@H]12 [Madecassoside] | inactive: -2.39 | inactive: -0.467 | inactive: 2.3 |

Complete entries from above. Values in the order: TEAD-luciferase reporter activity (compound concentration: 200 nM)	TEAD-luciferase reporter activity (compound concentration: 2 uM)	TEAD-luciferase reporter activity (compound concentration: 10 uM)
CC(C)(C)NCC(O)COc1nsnc1N1CCOCC1 (stereo not given) [timolol, transdermal] is entered as –	inactive: -0.629	–
CC1(C)S[C@@H]2[C@H](NC(=O)[C@H](N)c3ccccc3)C(=O)N2[C@H]1C(=O)OC1OC(=O)c2ccccc21 (stereo not given in full) is entered as inactive: 0.753	inactive: -0.477	inactive: 1.79
COc1ccc(CC(=O)N2Cc3ccccc3CC23CCCN(C(=O)CCCN)C3)cc1 (stereo not given) is entered as inactive: 0.805	–	inactive: 2.57
CC(C)(C)NCC(O)COc1nsnc1N1CCOCC1 (stereo not drawn) [S(-)-Timolol maleate] is entered as inactive: -2.6	–	inactive: -2.48
